This note sets out measurements from PMC8639918, “Mechanism of phosphate sensing and signaling revealed by rice SPX1-PHR2 complex structure” (Nature Communications, 2021).

Chains of the proteins cited; added tags and fusions are not shown. Residues count along the entry.
UniProt Q6Z156, 230-426 L348A/L358A/I362A: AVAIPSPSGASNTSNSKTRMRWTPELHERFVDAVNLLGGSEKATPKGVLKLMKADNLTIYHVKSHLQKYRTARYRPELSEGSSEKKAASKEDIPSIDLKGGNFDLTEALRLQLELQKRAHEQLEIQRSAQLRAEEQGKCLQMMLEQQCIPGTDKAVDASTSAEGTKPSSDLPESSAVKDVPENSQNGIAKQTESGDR
UniProt Q6Z156, 230-426: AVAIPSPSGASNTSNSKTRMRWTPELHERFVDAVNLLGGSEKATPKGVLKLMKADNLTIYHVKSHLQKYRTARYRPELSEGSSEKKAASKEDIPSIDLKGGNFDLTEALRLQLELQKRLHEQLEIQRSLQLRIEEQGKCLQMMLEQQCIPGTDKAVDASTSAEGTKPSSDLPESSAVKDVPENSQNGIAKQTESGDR

For at least one entry, the source does not settle the construct or the ends of the probe. For some assays here: No signal at the amounts used counts as a negative.

Assay in all cases: ITC
For orientation: In ITC the heat of successive injections is recorded.

Data set [1] has as its target PHR2 230-426 3M L348A,L358A,I362A (Oryza sativa (rice)) (UniProt Q6Z156). Particulars: 25 C, buffer E (200 mM PBS pH 7.4), 70 uM P1BS injected into 10 uM protein, recombinant protein, residues 230-426, protein details: N-terminal 10xHis-MsyB, TEV-cleaved.
The test system of data set [2] is PHR2 230-426 + SPX1 1-259. The following applies: buffer E (200 mM PBS pH 7.4), 70 uM P1BS injected into 10 uM protein, recombinant protein.
Data set [3] addresses PHR2 230-426 (Oryza sativa (rice)) (UniProt Q6Z156). Particulars: buffer E (200 mM PBS pH 7.4), 70 uM P1BS injected into 10 uM protein, recombinant protein, residues 230-426, protein details: N-terminal 10xHis-MsyB, TEV-cleaved.

As a reminder, the Kd is the concentration at which binding is half-saturated. On to CGCGAATATTCCCA (double strand) [P1BS], for which the Kd in data set [1] was 1800 nM; in data set [2] (SPX1 1-259 present, no InsP6, 25 C) it was 381 nM; in data set [3] (25 C), 256 nM; in data set [3] (InsP6, 25 C), 232 nM. Further, in data set [2] (SPX1 1-259 + InsP6, binding completely abolished, 25 C), the binding result was “no binding”.
